## Results of single-concentration screens

Protein sequences, listed by entry. Tags and fused reporters are not part of them. Residues count along the entry.
UniProt A4I591, 1-473: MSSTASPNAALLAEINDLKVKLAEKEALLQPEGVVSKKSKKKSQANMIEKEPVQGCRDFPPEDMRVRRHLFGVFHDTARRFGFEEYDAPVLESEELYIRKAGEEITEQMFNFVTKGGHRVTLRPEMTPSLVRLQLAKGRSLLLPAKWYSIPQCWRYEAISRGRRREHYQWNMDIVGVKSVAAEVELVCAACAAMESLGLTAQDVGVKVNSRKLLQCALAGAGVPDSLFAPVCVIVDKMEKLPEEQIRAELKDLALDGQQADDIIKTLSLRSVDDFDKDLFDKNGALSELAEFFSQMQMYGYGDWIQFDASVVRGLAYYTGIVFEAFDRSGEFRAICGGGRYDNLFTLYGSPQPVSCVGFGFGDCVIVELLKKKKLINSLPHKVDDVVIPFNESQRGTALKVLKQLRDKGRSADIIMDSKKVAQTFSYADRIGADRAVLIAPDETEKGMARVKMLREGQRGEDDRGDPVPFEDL

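Enzyme assay of histidyl-tRNA synthetase; the read-out is not stated. Target: Histidine-tRNA ligase, Leishmania infantum (UniProt A4I591). Tested at 30 µM. Higher reads as stronger inhibition (inferred: compounds with an IC50 in retests scored well above the rest). The assay is labelled LdHisRS but filed under L. infantum. Of about 69,000 compounds tested this way, about 410 (0.6%) reached 50% or more in at least one test.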

Each number is a percent effect as filed.
The record does not define 0% and 100%; most values in the screen are far below 50% and negative numbers occur (in some assays of this library far below -100).
This is an unselected part of the compounds tested.

| Compound | effect |
|---|---|
| `Cc1ccc(C(C)N(C)Cc2nc3c(cnn3C)c(=O)[nH]2)c(C)c1` (stereo not shown) | 14.68 |
| `Cc1cc(CN2CCc3c(CNc4ncccn4)cncc3C2)oc1C` | 35.29 |
| `CCS(=O)(=O)N1CC[C@H]2O[C@@H](c3nnc(C)o3)CC[C@H]21` | 11.76 |
| `Cc1cnn(CCNCC(=O)NCc2ccccc2)c1` | 4.545 |
| `COc1ccc(Cl)cc1CS(=O)(=O)Cc1nc(C)no1` | 31.34 |
| `NC(=O)c1cc(NC(=O)N2CCCCCC2)ccc1F` | 9.615 |
| `Cc1ccccc1OCCn1cnc2oc(C)c(C(=O)O)c2c1=O` | 12.39 |
| `c1cc(C2CCN(c3cnccn3)CC2)ccn1` | 8.054 |
| `Cc1ncc(CN(C)CC(O)c2ccc(Br)cc2)s1` (stereo not shown) | 5.714 |
| `CCC(CC)C(=O)NCCc1ccn(-c2ccccc2)n1` | 10.26 |
| `CC(NC(=O)NCCn1ccnc1)c1ccc2c(c1)OCCO2` (stereo not shown) | 3.39 |
| `COc1ccc(N(C)C(=O)C2CN(C)CCO2)cc1Cl` (stereo not shown) | 15.38 |
| `Cc1n[nH]c(-c2ccc(NC(=O)C(C)(C)N3CCN(C)CC3)cc2)n1` | 12.61 |
| `CC(C)S(=O)(=O)C(C)C(=O)Nc1ccc2oc(C3CC3)nc2c1` (stereo not shown) | 26.76 |
| `O=S(=O)(c1ccccc1)N1CCC[C@]2(C[C@H](OCC3CC3)CO2)C1` | -2.752 |
| `Cn1ccc(C(=O)NC2CCC23CCN(C(=O)C2CCOCC2)CC3)c1` (stereo not shown) | 17.65 |
| `CS(=O)(=O)c1nccn1Cc1ccc(Cl)cc1` | 8.602 |
| `CC(C)(C)n1cc(CNC2CCN(C(=O)c3ccco3)CC2)cn1` | -38.03 |
| `COCCN1CC(Nc2nc(C(C)C)nc3c2cnn3C)CC1=O` (stereo not shown) | 12.5 |
| `CC(=O)c1cccc(NC(=O)CN2CCCCC2C)c1` (stereo not shown) | 8.036 |
| `CN(C)S(=O)(=O)N1CC[C@]2(C[C@H](Oc3ncccc3F)CO2)C1` | 3.922 |
| `CCc1nc(NS(=O)(=O)c2cc(C)ccc2Br)no1` | 3.306 |
| `COC[C@@H]1CCCN1C(=O)c1cc(-c2ccc(OC)cc2)n[nH]1` | 19.17 |
| `COc1ccc(-c2nnsc2C(=O)N2CCN(C(C)=O)CC2)cc1` | -1.099 |
| `O=C(Nc1ccccc1OC(F)(F)F)C1CCS(=O)(=O)C1` (stereo not shown) | 17.24 |
| `CC(C)c1cc(N(C)Cc2noc(C3CCCC3)n2)n2nccc2n1` | 16.39 |
| `O=C(c1cc(-c2ccco2)cs1)N1CCOCC1` | 25 |
| `CCc1nc(C2CCCN2C(=O)CCCOc2cccc(F)c2)no1` (stereo not shown) | -6.667 |
| `CC(=O)N1CCC(c2ccnc(Nc3cncnc3)n2)C1` (stereo not shown) | 12.41 |
| `COCCCNC(=O)c1cc(-c2cnc(N3CCOCC3)nc2)cn1C` | 28 |
| `CC(C)N1CCC2(C=C(C(=O)N(C)C)c3ccccc32)CC1` | 17.81 |
| `COc1ccc(-n2ncc(C(=O)NCC3COC(C)(C)O3)c2N)cc1` (stereo not shown) | 14.29 |
| `CNCc1cnc(Nc2ccccc2)nc1` | -4.167 |
| `Cc1cc(C)c(CNc2nc3ccccc3cc2CO)c(=O)[nH]1` | 5.479 |
| `Cc1ccc(CN2C[C@@H]3CCN(Cc4ccncc4)C(=O)[C@H]3C2)s1` | 44.23 |
| `COC[C@@]12CC[C@@H](N3CCOCC3)C[C@H]1CCN(c1nc(CO)cs1)C2` | 19.44 |
| `C1CCC(CSc2nnnn2C2CC2)OC1` (stereo not shown) | 3.226 |
| `COC(=O)CC(c1ccccc1)c1oc(C)cc(=O)c1O` (stereo not shown) | -1.905 |
| `CN(c1cccnn1)C1CCN(C(=O)c2n[nH]c3c2CCC3)CC1` | 7.292 |
| `Cc1cc(C(=O)N2CCCC(C)C2)ccc1NCc1nc(C2CC2)no1` (stereo not shown) | 1.739 |
| `Cc1cc(C)n(C2CCCN(C(=O)c3cc(C4CC4)on3)C2)n1` (stereo not shown) | 8 |
| `CCN1CCO[C@]2(CCC[C@H]2COCc2csc(C)n2)C1` | 7.843 |
| `Cc1cccc(C(=O)NCc2cccnc2N(C)C)n1` | 10.19 |
| `Cc1cnn(C2CCCN(C(=O)Cn3ccc(=O)n(C)c3=O)C2)c1` (stereo not shown) | 8.772 |
| `O=C(N[C@@H]1CCN(c2nc3ccccc3o2)C[C@H]1O)c1cnccn1` | 22.22 |
| `O=C(C1CCOC1)N1CCN(Cc2cccnc2)c2ncccc2C1` (stereo not shown) | 9.722 |
| `O=C(c1nc2c(o1)CN(CC1CCC1)C2)N1CCCC1` | 18.8 |
| `Cc1ccc(-c2n[nH]cc2CNCCn2cccn2)o1` | 24.78 |
| `COCCN1C[C@@H]2CN(Cc3cccc(C)n3)C[C@@H]2C1=O` | 29.27 |
| `CCN(CC)C1(Cc2cc(-c3ccccn3)on2)COC1` | 27.03 |
| `c1ccc(OCC2C[C@@H]3[C@@H](C2)OCCN3Cc2ccoc2)nc1` (stereo partly shown) | 11.32 |
| `COc1ccccc1-c1ncc(CN2CCCC(CCC(N)=O)C2)s1` (stereo not shown) | 14.29 |
| `O=C(CO)N1CCc2onc(Cn3cccn3)c2C1` | 13.73 |
| `Nc1nc(N)c2c(n1)OC1(CCN(C(=O)CC3CCCCN3)CC1)C2` (stereo not shown) | 11.51 |
| `O=C(CCn1cccn1)N1CCC(c2nnc(-c3ccsc3)o2)CC1` | 6.993 |
| `CNC(=O)CN(C)C(=O)c1cc2ccccc2cc1OC` | 13.16 |
| `Cn1cc(CN2CCC3(CC2)CC(c2ccncc2)C(=O)N3)cn1` (stereo not shown) | 11.76 |
| `COC(C)c1cccc(NCc2cccs2)c1` (stereo not shown) | 8.571 |
| `Cc1cc(-c2cccc(C(=O)O)c2)nc(C2CCN(C(C)C)CC2)n1` | 6.186 |
| `Cc1nn(C)c2nc(N(CCOc3ccccc3)CC3CCCO3)sc12` (stereo not shown) | 8.333 |
| `COC(=O)c1ccc(NC(=O)CNCc2ccco2)cc1` | 2.5 |
| `Cc1ncncc1C(=O)N1CCC(O)(CN(C)Cc2ccc(F)cc2)C1` (stereo not shown) | 3.125 |
| `Cc1ccccc1C(=O)Nc1ccc([C@H]2OCC(=O)N(C)[C@@H]2CO)cc1` | 25.68 |
| `COC(=O)CNC(=O)CCCn1cnc2ccccc2c1=O` | 14.29 |
| `CCNC(=O)CN(CC)C(=O)c1csc(Cc2ccccc2F)n1` | 8.235 |
| `COC(=O)c1sc2cccc(F)c2c1CNC(=O)C1CCOC1` (stereo not shown) | 13.51 |
| `Cc1ccc2c(c1)SCC(=O)N2CC(=O)N1CCC[C@H]1c1nc(C)no1` | 9.375 |
| `COCC(=O)N(Cc1ccc2cc[nH]c2c1)C1CC1` | 15 |
| `Cc1cc(C)n(CC2CN(CCC(=O)NC3CCCCC3)CCO2)n1` (stereo not shown) | 10.43 |
| `Cc1nc(C2CCCN(C(=O)c3sc(C)nc3C)C2)no1` (stereo not shown) | 17.81 |
| `O=C(C1CCCN(C2CCOCC2)C1)N1Cc2ccccc2C1` (stereo not shown) | 10.2 |
| `CC(C)c1nc(CN(C)C(=O)[C@H](N)Cc2ccc(Cl)cc2)cs1` | 14.67 |
| `Cc1ccnc(CC(C)N(C)c2cc(CCN)nc(C)n2)c1` (stereo not shown) | 5.263 |
| `O=C(c1cccnn1)N1C[C@@H]2CC[C@H](Oc3cccc(F)c3)[C@@H]2C1` | 18 |
| `O=C(N1CCOCC1)[C@@]12CCO[C@@H]1CCN(CC1CCC1)C2` | 20.51 |
| `CCN(CC1CCCN(CCc2cccc(OC)c2)C1)C(=O)CSC` (stereo not shown) | 12.86 |
| `CC(C)c1n[nH]c(C2CN(Cc3nnc(C4CC4)n3C)CCO2)n1` (stereo not shown) | 1.653 |

9 of the entries, repeated:

Compound,effect
Cc1nn(C)c2nc(N(CCOc3ccccc3)CC3CCCO3)sc12 (stereo not shown),8.333
Cc1cc(C)n(C2CCCN(C(=O)c3cc(C4CC4)on3)C2)n1 (stereo not shown),8
COC(=O)c1sc2cccc(F)c2c1CNC(=O)C1CCOC1 (stereo not shown),13.51
CS(=O)(=O)c1nccn1Cc1ccc(Cl)cc1,8.602
Nc1nc(N)c2c(n1)OC1(CCN(C(=O)CC3CCCCN3)CC1)C2 (stereo not shown),11.51
CC(C)c1nc(CN(C)C(=O)[C@H](N)Cc2ccc(Cl)cc2)cs1,14.67
COCCN1CC(Nc2nc(C(C)C)nc3c2cnn3C)CC1=O (stereo not shown),12.5
Cn1cc(CN2CCC3(CC2)CC(c2ccncc2)C(=O)N3)cn1 (stereo not shown),11.76
COc1ccc(Cl)cc1CS(=O)(=O)Cc1nc(C)no1,31.34

The values are deposited in ChEMBL (CHEMBL3988442, “University of Dundee, Small-Polar-MMV Screening Library” (2021)).